One substance from paper PMC8720590 can be followed below.

The chains behind the UniProt entries cited, without tags or fusion partners.
UniProt P43694: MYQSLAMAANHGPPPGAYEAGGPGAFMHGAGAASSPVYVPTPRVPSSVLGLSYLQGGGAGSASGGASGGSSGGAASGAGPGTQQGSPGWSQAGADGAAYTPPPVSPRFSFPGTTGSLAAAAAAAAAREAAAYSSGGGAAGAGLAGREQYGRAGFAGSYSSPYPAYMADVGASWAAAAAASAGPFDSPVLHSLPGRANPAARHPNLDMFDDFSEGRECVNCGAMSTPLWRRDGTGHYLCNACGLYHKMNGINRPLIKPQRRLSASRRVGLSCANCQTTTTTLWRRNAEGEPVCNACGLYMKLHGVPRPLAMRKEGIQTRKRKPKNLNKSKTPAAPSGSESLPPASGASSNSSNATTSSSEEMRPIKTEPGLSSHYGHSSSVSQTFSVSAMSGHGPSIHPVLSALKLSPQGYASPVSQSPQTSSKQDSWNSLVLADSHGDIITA

These are yes or no findings as the source states them, for the method shown. In cells and extracts the contact can be indirect. Some entries that bind do so weakly or less than the wild type.

The target of the test is SQSTM1/p62 (human (endogenous in HCT15 and HCT116)) (UniProt Q13501). Description: co-IP; endogenous p62 immunoprecipitated with anti-p62 antibody, GATA4 detected by immunoblot; CRC cells treated with chloroquine (25 uM, 24 h) in pH 7.4 or pH 6.5 medium; WIP lysis buffer. (A western blot detects proteins with antibodies after separation by electrophoresis.)

Consider GATA4 (from UniProt P43694 1-442), for which the binding entry was “binds”.
